In paper doi:10.1101/2025.04.25.648738:
Results are given in words; binding and its absence hold for the method and conditions named. In cells and extracts the contact can be indirect. A yes stands for co-enrichment or nearness to the bait. Other partners may have been found.

Chains of the proteins cited; added tags and fusions are not shown. Lines headed by an entry give the natural chain unless they say otherwise; changes in a name come on top. A line that says so, or that is headed by a name, gives the form on record, which may keep a tag or linker.
ZNF207 with a C-terminal miniTurbo tag (O43670, form named): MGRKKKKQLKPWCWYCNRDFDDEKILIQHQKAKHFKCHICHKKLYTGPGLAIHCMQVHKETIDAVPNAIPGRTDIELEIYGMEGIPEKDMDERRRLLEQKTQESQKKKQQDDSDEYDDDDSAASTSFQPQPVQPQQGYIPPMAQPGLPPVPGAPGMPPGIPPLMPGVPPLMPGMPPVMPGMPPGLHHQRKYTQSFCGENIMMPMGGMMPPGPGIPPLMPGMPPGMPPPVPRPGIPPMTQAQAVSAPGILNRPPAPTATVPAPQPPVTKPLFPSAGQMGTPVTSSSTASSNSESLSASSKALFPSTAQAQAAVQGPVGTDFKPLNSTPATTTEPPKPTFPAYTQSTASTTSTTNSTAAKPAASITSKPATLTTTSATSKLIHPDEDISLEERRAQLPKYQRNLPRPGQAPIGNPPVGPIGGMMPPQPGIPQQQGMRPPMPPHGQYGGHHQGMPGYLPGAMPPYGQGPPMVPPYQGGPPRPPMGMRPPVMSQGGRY
UniProt O43684: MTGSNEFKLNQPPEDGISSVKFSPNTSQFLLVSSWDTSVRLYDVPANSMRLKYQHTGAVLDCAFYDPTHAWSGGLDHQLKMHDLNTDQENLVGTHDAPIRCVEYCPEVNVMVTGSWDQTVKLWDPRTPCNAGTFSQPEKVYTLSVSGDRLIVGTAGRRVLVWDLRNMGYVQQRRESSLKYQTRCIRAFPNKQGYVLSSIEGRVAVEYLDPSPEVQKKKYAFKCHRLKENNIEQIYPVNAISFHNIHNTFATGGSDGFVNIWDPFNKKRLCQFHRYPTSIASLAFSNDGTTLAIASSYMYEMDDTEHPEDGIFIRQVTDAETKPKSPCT

Target: ZNF207 with a C-terminal miniTurbo tag (human) (UniProt O43670)
Test: proximity labelling; miniTurboID: HEK293 Flp-In cells expressing ZNF207-miniTurbo (doxycycline 0.5 ug/mL), 50 uM biotin, streptavidin capture, mass spectrometry, triplicate; controls miniTurbo-Empty and miniTurbo-EGFP

## BUB3 (from UniProt O43684 1-328)
  binding: binds
